Measurements from patent publication US20250327081.

Columns and labels:
Assay in all cases: binding assay
[1] = molecular target: TDP-43 full-length eGFP fusion (UniProt Q13148); conditions: 2'-F at cytosines 1 and 9; HEK293T confocal co-localisation, Manders' overlap 0.85-0.89; protein in cells; protein details: eGFP (N-terminal, pEGFP C1); label: 3'-Atto590; variant of Apt-1
Amyloid-beta-42 = Amyloid-beta-42 (UniProt P05067); conditions: RNA with 2'-F cytosines at positions 1 and 9, 3'-Atto590 (library chemistry); aggregates and oligomers; TIRF imaging; purified recombinant protein; label: Atto590; variant of Apt-1
[2] = molecular target: TDP-43 aggregates in ALS tissue or CSF (Homo sapiens) (UniProt Q13148); conditions: RNA with 2'-F cytosines at positions 1 and 9, 3'-Atto590 (library chemistry); imaging of aggregates in ALS motor cortex and CSF; protein in an extract; label: Atto590; variant of Apt-1
[3] = molecular target: TDP-43 construct (RRM1-2) (UniProt Q13148); conditions: RNA with 2'-F cytosines at positions 1 and 9, 3'-Atto590 (library chemistry); AD-PAINT TIRF imaging of aggregates, 1 nM aptamer in PBS; purified recombinant protein; label: Atto590; variant of Apt-1
alpha-synuclein = alpha-synuclein (UniProt P37840); conditions: RNA with 2'-F cytosines at positions 1 and 9, 3'-Atto590 (library chemistry); aggregates and oligomers; TIRF imaging; purified recombinant protein; label: Atto590; variant of Apt-1

Row | Sequence | binding result [1] | binding result (Amyloid-beta-42) | binding result [2] | binding result [3] | binding result (alpha-synuclein)
1 | CGGUGUUGCU [Apt-1 2'-F Atto590] | binds |  |  |  | 
2 | CGGUGUUGCU [Apt-1 Atto590] |  | no binding | binds | binds | no binding

For some assays here: Where cells or extracts were used, other partners may take part. For some assays here: For at least one entry, the source does not settle the construct or the ends of the probe. For some assays here: No signal at the amounts used counts as a negative.
